Measurements from article PMC6755085, “Cyclic oligoadenylate signalling mediates Mycobacterium tuberculosis CRISPR defence” (Nucleic Acids Research, 2019).

By UniProt entry, the sequences of proteins in these tests, tags left out. Where a name states a change or a piece, a line headed by the entry shows the natural chain unless it says otherwise.
UniProt P9WJF9: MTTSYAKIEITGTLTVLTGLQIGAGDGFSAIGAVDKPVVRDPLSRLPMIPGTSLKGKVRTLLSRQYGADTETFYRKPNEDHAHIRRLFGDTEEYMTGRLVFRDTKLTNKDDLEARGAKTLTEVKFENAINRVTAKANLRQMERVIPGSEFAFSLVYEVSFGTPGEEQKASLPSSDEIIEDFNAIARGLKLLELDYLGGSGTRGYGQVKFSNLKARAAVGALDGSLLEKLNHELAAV

Target: T1, Mycobacterium tuberculosis Csm4 (Cas5), His6-tagged (Mycobacterium tuberculosis) (UniProt P9WJF6)
T1 sequence: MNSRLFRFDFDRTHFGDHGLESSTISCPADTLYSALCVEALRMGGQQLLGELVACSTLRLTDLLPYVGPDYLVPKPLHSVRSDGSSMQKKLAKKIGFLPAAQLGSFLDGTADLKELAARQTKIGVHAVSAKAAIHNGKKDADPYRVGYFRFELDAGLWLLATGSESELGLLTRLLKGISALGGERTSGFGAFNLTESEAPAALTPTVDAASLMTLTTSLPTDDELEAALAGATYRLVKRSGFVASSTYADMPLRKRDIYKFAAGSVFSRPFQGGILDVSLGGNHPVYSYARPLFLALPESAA
Experiment: pull-down

With “Mycobacterium tuberculosis Csm3 (Cas7) (from UniProt P9WJF9)” the binding was “binds”.

No constants are given. Whether binding was seen depends on the method and setting. Binding seen in cells or lysates may run through a third protein. Binding calls can cover weak binding; strength is not graded here. Sequences can lack the tags named with a protein.
